Values from PubChem BioAssay AID1159584 (Peter MacCallum Cancer Centre, 2016).
The whole screen tested about 18,000 reagents; shown is a part drawn at random. No sequences are given here. The record does not give: the amount of reagent, the time to read-out.

Screen: 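Genes whose loss is lethal only together with E-cadherin loss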 (primary screen)
System: human MCF10A breast epithelial cells, parental and CDH1-null
Reagent: siRNA against human genes
Measurement: 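Cell viability by CellTiter-Glo ATP luminescence, each line scaled to the mean of mock wells across plates, then CDH1-null over parental ratio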
Scale: CDH1-null / parental viability ratio: higher = CDH1-null cells survive relatively better than parental; CDH1-null viability vs mock: higher = more viable CDH1-null cells; parental viability vs mock: higher = more viable parental cells

no.	target	CDH1-null / parental viability ratio	CDH1-null viability vs mock (fraction of mock)	parental viability vs mock (fraction of mock)
1	FAM13A	1.07	0.86	0.8
2	YWHAB	0.87	0.66	0.76
3	BCL2L11	1.02	1.08	1.06
4	C1orf94	1.05	0.92	0.88
5	EIF3C	0.7	0.26	0.37
6	MYO6	0.88	0.9	1.02
7	HLA-DOA	1.46	1.05	0.72
8	SULF2	1.03	0.74	0.72
9	TRIM51EP	0.94	0.82	0.87
10	UBE2M	1.13	0.6	0.53
11	GSTA5	0.93	0.55	0.59
12	SLC29A1	1	0.66	0.66
13	DUSP8	1.17	0.95	0.81
14	SLC49A3	1.14	0.87	0.76
15	FRAS1	1.17	0.76	0.65
16	ADH5	0.7	0.6	0.86
17	MNAT1	0.84	0.89	1.06
18	PCDHGB1	1.3	1.14	0.88
19	ATG5	1	0.86	0.86
20	KRTAP19-3	0.89	0.62	0.7
21	EMB	0.61	0.49	0.8
22	GABRR2	1.22	1.12	0.92
23	ARCN1	1.1	0.22	0.2
24	BICRAL	1.03	0.92	0.89
25	STK32A	1.01	0.84	0.83
26	PLCD1	0.78	0.7	0.9
27	FAM133A	0.92	0.9	0.98
28	COPZ2	1.53	0.55	0.36
29	FAM53C	0.76	0.62	0.82
30	TBCB	1.01	0.85	0.84
31	RRP7A	1.04	0.94	0.9
32	DHRS4L1	1.01	0.82	0.81
33	PDCD7	0.89	0.31	0.35
34	PPARG	1.12	1.01	0.9
35	MKI67	1.41	0.65	0.46
36	CD248	0.84	0.92	1.09
37	SLC45A3	1.3	0.7	0.54

Ordered by “parental viability vs mock (fraction of mock)” (low to high): some entries from above.
target	CDH1-null / parental viability ratio	CDH1-null viability vs mock (fraction of mock)	parental viability vs mock (fraction of mock)
ARCN1	1.1	0.22	0.2
FRAS1	1.17	0.76	0.65
KRTAP19-3	0.89	0.62	0.7
EMB	0.61	0.49	0.8
ADH5	0.7	0.6	0.86
ATG5	1	0.86	0.86
PCDHGB1	1.3	1.14	0.88
BICRAL	1.03	0.92	0.89
GABRR2	1.22	1.12	0.92
MNAT1	0.84	0.89	1.06

Additional records follow:
no.	target	CDH1-null / parental viability ratio	CDH1-null viability vs mock (fraction of mock)	parental viability vs mock (fraction of mock)
38	NUFIP2	1.41	0.62	0.44
39	CCDC184	1	0.99	0.99
40	PCID2	0.86	0.67	0.78
41	SMARCC1	0.79	0.62	0.78
42	MEIOB	1.08	0.66	0.61
43	HRH4	0.87	0.8	0.92
44	GGTLC2	1	0.4	0.4
45	RBM23	1.24	0.94	0.76
46	ECHDC2	0.8	0.56	0.7
47	MAP3K20	0.86	1.06	1.23
48	BRD8	0.78	0.62	0.79
49	H4C16	1.08	0.54	0.5
50	OR1B1	0.79	0.5	0.63
51	PUM1	1.23	0.96	0.78
52	SIPA1L2	0.9	0.61	0.68
53	THEM5	1	0.78	0.78
54	FPR2	0.97	1	1.03
55	PKHD1	0.84	0.78	0.93
56	ABLIM3	1.32	0.54	0.41
57	FBXO5	1.25	0.3	0.24
58	OR10V1	1.06	0.84	0.79
59	XRN1	1	0.86	0.86
60	FAM3B	1.05	0.86	0.82
61	RAE1	1.11	0.82	0.74
62	LY6E	0.86	0.5	0.58
63	CDH12	1	0.64	0.64
64	OR52R1	0.88	0.56	0.64
65	ACAP3	0.94	0.8	0.85
66	SLC22A13	1	0.62	0.62
67	TRIR	1	0.52	0.52
68	UCP3	0.87	0.9	1.04
